Measured values reported in patent US20190046658A1.
No constants are given. Whether binding was seen depends on the method and setting. Some entries that bind do so weakly or less than the wild type.

T1: soluble truncated uPARAP protein containing the first 3 N-terminal domains of human uPARAP (CysR, FN-II and CTLD-1) (human) (UniProt Q9UBG0)
T1 sequence: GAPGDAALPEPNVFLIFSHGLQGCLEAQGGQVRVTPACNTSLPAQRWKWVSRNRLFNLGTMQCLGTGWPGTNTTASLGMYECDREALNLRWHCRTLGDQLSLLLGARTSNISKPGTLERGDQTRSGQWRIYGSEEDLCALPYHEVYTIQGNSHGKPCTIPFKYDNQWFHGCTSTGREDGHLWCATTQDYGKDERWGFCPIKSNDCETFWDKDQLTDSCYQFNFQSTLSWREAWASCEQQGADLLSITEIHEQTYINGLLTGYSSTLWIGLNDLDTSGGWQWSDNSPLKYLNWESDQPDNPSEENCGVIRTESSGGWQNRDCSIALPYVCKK

B1: mAb 2h9 (mouse monoclonal IgG1κ antibody clone 2.h.9:F12, produced by hybridoma cell culture) (antibody, V domains shown)
VH: QVQLQQPGTELVRPGLSVKLSCKASGYTFTSYWMNWVKQRPGQGLEWIGMIHPSNDEKRINQKFKDKATLTVDKFSSTVYMQVSSPTSEDSAVYYCARGGGDYVGDYALDFWGQGTSVTVSS
VL: DIQMTQSPASQSASLGESVTITCLASQTIGTWLAWYQQKPGKSPQLLIYAATTLTDGVPSRFSGAGSGTKFSLKISSLQAEDFASYFCQEFFSTPFTFGSGTKLELKR
B2: mAb 2h9 subjected to the reduction procedure of conjugation (no drug attached) (antibody, mouse IgG1, kappa, V domains shown)
VH: B1 VH
VL: B1 VL
modifications: interchain disulphides partly reduced (10 mM DTT, 10 min, 37 C)

Target: T1, soluble truncated uPARAP protein containing the first 3 N-terminal domains of human uPARAP (CysR, FN-II and CTLD-1) (human)
Experiment: ELISA, truncated human uPARAP (3 N-terminal domains) coated at 25 ng/well

Binder	binding
B1	binds
B2	binds
